The supplement of paper PMC11006884
This is a selection; strong and weak results do not stand in their true shares.

By UniProt entry, the sequences of proteins in these tests, tags left out. Where a name states a change or a piece, a line headed by the entry shows the natural chain unless it says otherwise.
UniProt O15164: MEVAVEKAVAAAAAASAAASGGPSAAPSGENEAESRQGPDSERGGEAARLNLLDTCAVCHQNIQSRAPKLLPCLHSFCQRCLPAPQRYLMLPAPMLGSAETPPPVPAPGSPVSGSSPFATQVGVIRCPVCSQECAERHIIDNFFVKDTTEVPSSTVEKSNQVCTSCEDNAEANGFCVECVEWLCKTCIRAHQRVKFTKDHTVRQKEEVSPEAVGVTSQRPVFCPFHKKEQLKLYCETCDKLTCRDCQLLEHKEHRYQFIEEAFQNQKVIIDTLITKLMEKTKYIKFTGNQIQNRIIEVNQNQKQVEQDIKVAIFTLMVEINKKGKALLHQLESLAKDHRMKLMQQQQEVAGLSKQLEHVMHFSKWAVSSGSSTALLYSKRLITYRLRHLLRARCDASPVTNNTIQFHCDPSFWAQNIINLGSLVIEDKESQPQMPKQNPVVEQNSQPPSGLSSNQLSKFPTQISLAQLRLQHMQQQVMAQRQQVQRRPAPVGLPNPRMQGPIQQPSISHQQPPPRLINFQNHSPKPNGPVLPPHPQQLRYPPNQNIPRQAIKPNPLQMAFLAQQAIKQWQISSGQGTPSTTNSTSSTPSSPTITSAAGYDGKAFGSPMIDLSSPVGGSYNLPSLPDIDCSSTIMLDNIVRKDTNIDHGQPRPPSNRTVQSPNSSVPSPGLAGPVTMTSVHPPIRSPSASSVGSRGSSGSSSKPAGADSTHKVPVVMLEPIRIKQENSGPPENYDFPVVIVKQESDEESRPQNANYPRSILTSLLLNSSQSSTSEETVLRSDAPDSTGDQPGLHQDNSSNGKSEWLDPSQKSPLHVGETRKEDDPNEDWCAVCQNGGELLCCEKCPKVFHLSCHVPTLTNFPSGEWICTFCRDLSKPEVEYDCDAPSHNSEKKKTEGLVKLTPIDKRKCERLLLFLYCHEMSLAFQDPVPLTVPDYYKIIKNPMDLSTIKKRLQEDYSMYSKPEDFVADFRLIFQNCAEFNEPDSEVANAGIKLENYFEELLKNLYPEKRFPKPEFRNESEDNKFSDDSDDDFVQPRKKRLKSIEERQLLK
UniProt O15014: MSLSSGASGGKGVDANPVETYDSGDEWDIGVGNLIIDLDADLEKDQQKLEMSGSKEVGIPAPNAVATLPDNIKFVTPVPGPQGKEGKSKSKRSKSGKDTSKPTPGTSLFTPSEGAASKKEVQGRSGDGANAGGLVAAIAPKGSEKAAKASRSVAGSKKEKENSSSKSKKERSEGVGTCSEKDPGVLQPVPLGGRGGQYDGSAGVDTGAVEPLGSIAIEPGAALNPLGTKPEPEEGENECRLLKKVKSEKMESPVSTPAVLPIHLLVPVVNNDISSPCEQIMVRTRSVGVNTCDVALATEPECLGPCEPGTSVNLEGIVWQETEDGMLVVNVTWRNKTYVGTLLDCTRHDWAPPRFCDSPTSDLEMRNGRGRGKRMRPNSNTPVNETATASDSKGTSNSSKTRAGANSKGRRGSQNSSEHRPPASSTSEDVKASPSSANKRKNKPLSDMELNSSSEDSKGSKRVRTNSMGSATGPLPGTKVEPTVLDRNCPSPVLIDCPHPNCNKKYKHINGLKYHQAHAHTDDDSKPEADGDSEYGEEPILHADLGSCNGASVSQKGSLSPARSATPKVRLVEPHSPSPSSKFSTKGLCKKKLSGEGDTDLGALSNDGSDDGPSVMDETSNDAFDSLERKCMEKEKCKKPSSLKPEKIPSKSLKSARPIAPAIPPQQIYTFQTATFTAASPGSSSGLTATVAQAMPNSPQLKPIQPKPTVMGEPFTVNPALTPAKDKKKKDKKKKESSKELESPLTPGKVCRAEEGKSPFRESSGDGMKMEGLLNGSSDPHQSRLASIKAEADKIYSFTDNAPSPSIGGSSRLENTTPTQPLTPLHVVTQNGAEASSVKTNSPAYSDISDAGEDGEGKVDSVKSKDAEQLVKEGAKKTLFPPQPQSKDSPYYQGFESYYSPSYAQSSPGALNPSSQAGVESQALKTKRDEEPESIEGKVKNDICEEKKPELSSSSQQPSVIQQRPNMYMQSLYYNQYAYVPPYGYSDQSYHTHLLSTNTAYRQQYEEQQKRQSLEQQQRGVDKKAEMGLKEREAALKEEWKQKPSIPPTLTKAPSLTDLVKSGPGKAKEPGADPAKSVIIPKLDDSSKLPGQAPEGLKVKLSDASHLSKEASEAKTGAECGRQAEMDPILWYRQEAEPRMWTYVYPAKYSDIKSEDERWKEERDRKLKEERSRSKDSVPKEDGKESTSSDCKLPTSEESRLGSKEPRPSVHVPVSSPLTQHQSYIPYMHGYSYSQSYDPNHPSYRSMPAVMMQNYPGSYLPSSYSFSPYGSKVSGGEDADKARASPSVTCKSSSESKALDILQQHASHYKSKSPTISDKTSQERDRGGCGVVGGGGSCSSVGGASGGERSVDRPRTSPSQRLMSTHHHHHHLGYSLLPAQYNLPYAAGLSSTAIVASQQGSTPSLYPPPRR
UniProt O14964, whole entry, looked up: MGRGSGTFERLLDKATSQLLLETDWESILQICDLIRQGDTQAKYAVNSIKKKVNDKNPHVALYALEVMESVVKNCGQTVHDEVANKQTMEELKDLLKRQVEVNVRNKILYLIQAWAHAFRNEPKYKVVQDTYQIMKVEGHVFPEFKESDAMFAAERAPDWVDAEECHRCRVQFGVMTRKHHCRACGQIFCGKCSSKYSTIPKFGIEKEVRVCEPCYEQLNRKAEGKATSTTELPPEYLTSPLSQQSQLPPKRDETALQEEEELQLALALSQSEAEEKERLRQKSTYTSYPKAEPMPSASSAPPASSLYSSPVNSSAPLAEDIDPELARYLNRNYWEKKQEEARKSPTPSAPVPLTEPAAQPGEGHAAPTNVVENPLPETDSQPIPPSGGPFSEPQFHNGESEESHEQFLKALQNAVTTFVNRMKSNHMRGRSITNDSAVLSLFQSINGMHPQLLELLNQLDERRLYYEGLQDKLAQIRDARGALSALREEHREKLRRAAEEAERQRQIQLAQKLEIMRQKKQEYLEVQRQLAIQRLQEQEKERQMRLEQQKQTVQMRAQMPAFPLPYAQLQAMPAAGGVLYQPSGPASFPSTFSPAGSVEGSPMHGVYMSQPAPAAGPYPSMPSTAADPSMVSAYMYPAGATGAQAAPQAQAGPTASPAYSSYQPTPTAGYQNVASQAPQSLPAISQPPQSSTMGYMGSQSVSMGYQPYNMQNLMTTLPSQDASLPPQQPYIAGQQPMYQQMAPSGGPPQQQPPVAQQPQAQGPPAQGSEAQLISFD
UniProt O15228: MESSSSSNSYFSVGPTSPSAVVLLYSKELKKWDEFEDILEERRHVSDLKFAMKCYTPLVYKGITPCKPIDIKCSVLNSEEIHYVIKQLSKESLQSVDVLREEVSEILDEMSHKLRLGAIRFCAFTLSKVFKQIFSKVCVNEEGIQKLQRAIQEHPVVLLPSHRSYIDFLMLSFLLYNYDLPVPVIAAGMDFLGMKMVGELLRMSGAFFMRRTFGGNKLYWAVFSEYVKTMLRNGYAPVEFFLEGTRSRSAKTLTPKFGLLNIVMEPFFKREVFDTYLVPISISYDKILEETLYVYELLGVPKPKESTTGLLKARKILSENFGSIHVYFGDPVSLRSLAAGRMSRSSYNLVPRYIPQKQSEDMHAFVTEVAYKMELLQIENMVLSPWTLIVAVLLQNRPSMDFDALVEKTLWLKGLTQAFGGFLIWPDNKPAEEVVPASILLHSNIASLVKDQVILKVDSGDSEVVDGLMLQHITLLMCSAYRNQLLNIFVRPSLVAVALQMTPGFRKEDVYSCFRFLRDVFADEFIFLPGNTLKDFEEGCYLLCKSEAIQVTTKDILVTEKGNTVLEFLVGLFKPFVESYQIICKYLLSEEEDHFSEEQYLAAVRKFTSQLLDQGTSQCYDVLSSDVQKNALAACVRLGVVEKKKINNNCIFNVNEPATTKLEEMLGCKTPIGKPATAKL
UniProt O00483, whole entry: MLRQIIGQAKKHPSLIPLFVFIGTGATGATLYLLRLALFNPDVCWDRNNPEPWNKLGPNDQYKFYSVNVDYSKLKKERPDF
UniProt O14617: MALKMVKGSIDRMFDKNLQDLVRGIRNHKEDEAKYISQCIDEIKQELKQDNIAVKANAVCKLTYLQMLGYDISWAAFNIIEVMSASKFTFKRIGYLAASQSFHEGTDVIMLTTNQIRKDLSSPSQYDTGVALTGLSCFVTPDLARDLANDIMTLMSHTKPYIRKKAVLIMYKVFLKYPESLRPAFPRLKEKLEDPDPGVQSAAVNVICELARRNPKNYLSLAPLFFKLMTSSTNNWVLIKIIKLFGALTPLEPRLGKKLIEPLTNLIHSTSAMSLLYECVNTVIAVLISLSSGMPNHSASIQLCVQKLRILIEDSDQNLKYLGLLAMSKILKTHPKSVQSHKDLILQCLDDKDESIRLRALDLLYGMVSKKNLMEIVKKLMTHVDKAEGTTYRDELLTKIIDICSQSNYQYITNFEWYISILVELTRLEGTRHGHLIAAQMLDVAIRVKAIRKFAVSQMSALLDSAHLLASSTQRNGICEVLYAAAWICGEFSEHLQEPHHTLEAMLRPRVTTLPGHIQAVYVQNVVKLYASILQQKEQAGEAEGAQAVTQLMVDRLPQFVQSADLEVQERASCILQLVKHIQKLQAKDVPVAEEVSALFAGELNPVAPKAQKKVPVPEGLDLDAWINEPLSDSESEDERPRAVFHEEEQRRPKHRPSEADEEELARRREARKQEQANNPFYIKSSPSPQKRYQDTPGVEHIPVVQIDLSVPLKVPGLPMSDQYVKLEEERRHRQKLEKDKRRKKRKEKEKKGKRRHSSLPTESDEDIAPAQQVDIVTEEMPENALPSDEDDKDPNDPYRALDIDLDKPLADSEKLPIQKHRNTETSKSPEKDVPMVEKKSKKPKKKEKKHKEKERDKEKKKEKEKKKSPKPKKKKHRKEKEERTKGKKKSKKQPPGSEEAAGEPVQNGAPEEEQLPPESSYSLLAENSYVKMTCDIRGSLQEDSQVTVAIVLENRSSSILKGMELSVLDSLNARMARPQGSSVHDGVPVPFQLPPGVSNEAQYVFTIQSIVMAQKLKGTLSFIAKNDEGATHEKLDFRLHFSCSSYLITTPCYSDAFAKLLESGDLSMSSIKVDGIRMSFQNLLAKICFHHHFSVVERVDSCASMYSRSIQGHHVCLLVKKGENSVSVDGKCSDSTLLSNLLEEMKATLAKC
UniProt O15260: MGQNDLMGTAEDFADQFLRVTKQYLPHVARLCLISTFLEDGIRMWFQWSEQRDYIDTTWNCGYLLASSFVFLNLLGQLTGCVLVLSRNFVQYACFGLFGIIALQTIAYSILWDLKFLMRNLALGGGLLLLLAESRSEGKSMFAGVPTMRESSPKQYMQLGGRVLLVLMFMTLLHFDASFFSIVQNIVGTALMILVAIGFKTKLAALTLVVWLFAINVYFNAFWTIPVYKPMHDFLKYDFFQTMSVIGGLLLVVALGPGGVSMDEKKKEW
UniProt O15287: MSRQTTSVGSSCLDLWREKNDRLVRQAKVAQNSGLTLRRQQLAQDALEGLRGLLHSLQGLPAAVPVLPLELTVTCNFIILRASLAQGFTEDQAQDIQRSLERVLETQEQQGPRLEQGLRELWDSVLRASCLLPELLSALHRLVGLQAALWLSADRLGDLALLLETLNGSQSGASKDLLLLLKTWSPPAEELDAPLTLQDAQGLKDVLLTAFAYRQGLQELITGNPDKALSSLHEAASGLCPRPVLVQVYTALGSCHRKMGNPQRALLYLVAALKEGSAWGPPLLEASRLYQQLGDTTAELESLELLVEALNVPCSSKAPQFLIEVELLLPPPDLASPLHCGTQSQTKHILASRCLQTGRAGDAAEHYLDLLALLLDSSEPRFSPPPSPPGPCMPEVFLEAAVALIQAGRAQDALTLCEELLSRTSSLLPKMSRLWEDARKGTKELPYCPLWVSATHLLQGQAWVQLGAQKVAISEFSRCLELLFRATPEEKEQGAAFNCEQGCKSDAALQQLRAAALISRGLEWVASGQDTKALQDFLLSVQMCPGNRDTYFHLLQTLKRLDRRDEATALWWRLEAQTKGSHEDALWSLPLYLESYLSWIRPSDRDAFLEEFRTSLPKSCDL
UniProt O00273: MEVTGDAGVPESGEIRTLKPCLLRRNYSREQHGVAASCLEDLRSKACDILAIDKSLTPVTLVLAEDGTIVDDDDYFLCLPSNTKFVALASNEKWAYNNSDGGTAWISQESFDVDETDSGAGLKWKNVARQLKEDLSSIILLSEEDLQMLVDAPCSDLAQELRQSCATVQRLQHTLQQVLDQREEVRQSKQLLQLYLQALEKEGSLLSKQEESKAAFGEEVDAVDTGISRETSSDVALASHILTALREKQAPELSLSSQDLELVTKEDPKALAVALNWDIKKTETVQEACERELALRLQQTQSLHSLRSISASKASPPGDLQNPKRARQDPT

The targets below were run with COC(=O)C#Cc1ccccc1 [methyl 3-phenylpropiolate] (assay: log2 ratio of iodoacetamide-alkyne labeling of the cysteine site, DMSO over compound (competition); higher = stronger covalent engagement of the cysteine by the compound, active = 1 or more). Conditions: 500 µM; treatment time 1 h; system: HEK293T cell lysate.
In short: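 For each cysteine, the log2 competition ratio is mean control-channel reporter intensity over mean compound-channel reporter intensity. HEK293T lysate (2 mg/mL) was exposed to vehicle or electrophile (500 µM, 1 h, ambient temperature), labelled with iodoacetamide alkyne (1 h), clicked to sCIP-TMT reagents, digested overnight with trypsin at 37 °C, streptavidin-enriched and analysed by Orbitrap Eclipse LC-MS/MS with FAIMS and FragPipe. Cysteines quantified in only one of three replicates, each with duplicate channels, were excluded.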

**Q.** How did the “log2 ratio of iodoacetamide-alkyne labeling” value (shortened to “log2 ratio”) turn out when PES1 C361 (UniProt O00541) was run?
**A.** inactive: 0.221

**Q.** Which “log2 ratio” value does the source give for NKRF C246 (UniProt O15226) here?
**A.** inactive: 0.516

**Q.** How did the “log2 ratio” value turn out when EIF3D C327 (UniProt O15371) was run?
**A.** inactive: -0.102

**Q.** How did the “log2 ratio” value turn out when IRS4 C658 (UniProt O14654) was run?
**A.** inactive: 0.592

**Q.** With UniProt O15042_C624 as the target, how does the “log2 ratio” value read?
**A.** inactive: 0.461

**Q.** TRIM24 C629 (UniProt O15164) was tested. Which “log2 ratio” value did it give?
**A.** inactive: 0.316

**Q.** NVL C550 (UniProt O15381) was tested. Which “log2 ratio” value did it give?
**A.** inactive: -0.302

**Q.** Which “log2 ratio” value does the source give for EXOC5 C111 (UniProt O00471) here?
**A.** inactive: 0.297

**Q.** With UniProt O14628_C178 as the target, how does the “log2 ratio” value read?
**A.** active: 1.09

**Q.** ZZEF1 C2466 (UniProt O43149) was tested. Which “log2 ratio” value did it give?
**A.** inactive: -0.132

**Q.** Which “log2 ratio” value does the source give for ZNF609 C178 (UniProt O15014) here?
**A.** inactive: 0.382

**Q.** For HGS C212 (UniProt O14964), which “log2 ratio” value is on record?
**A.** inactive: 0.0422

**Q.** GNPAT C650 (UniProt O15228) was tested. Which “log2 ratio” value did it give?
**A.** inactive: 0.728

**Q.** How did the “log2 ratio” value turn out when EIF3F C256 (UniProt O00303) was run?
**A.** inactive: 0.365

**Q.** How did the “log2 ratio” value turn out when POLRMT C591 (UniProt O00411) was run?
**A.** inactive: -0.567

**Q.** How did the “log2 ratio” value turn out when AGPS C214 (UniProt O00116) was run?
**A.** inactive: 0.0828

**Q.** For PDHX C307 (UniProt O00330), which “log2 ratio” value is on record?
**A.** inactive: 0.254

**Q.** Which “log2 ratio” value does the source give for DHX15 C174 (UniProt O43143) here?
**A.** inactive: 0.157

**Q.** IRS4 C522 (UniProt O14654) was tested. Which “log2 ratio” value did it give?
**A.** inactive: 0.802

**Q.** How did the “log2 ratio” value turn out when DNM1L C505 (UniProt O00429) was run?
**A.** inactive: 0.219

**Q.** UniProt O14757_C168 was tested. Which “log2 ratio” value did it give?
**A.** inactive: 0.157

**Q.** PFAS C606 (UniProt O15067) was tested. Which “log2 ratio” value did it give?
**A.** active: 1.53

**Q.** With PPM1G C351 (UniProt O15355) as the target, how does the “log2 ratio” value read?
**A.** inactive: 0.334

**Q.** NDUFA4 C44 (UniProt O00483) was tested. Which “log2 ratio” value did it give?
**A.** inactive: 0.0834

**Q.** How did the “log2 ratio” value turn out when UniProt O00567_C52 was run?
**A.** inactive: 0.482

**Q.** For EXOC5 C517 (UniProt O00471), which “log2 ratio” value is on record?
**A.** inactive: 0.256

**Q.** For UniProt O15063_C512, which “log2 ratio” value is on record?
**A.** inactive: 0.782

**Q.** DNM1L C431 (UniProt O00429) was tested. Which “log2 ratio” value did it give?
**A.** inactive: 0.753

**Q.** With PDLIM1 C260 (UniProt O00151) as the target, how does the “log2 ratio” value read?
**A.** inactive: -0.234

**Q.** With PPM1G C241 (UniProt O15355) as the target, how does the “log2 ratio” value read?
**A.** inactive: 0.17

**Q.** How did the “log2 ratio” value turn out when AP3D1 C208 (UniProt O14617) was run?
**A.** inactive: 0.338

**Q.** With SURF4 C32 (UniProt O15260) as the target, how does the “log2 ratio” value read?
**A.** inactive: 0.0105

**Q.** For PDLIM1 C45 (UniProt O00151), which “log2 ratio” value is on record?
**A.** inactive: 0.0932

**Q.** For PHGDH C116 (UniProt O43175), which “log2 ratio” value is on record?
**A.** inactive: 0.00502

**Q.** For FANCG C417 (UniProt O15287), which “log2 ratio” value is on record?
**A.** inactive: 0.36

**Q.** How did the “log2 ratio” value turn out when GTPBP1 C669 (UniProt O00178) was run?
**A.** active: 1.13

**Q.** DFFA C38 (UniProt O00273) was tested. Which “log2 ratio” value did it give?
**A.** inactive: 0.349
